Results deposited as PubChem BioAssay AID1224826 (NIAID, 2016).
Purpose: 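Regulators of Tlr4 signalling leading to Tnf-alpha expression in macrophages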 (primary screen). Cells: RAW264.7 G9 macrophages from mouse bearing reporters for p65 (GFP) and the Tnf promoter (mCherry). Knock-down reagent: siRNA pool against mouse genes, 100 nM. Time to read-out: 16 h of LPS stimulation, after 2 days of siRNA transfection. Treatment: bacterial lipopolysaccharide (Salmonella minnesota R595), 10 ng/ml. Measured: 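Nuclear mCherry signal of the Tnf promoter reporter measured by imaging after background removal, scaled to each plate median and turned into robust z-scores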. Reading the numbers: Tnf reporter robust z-score: higher = stronger Tnf promoter reporter signal after LPS. Active means: 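Called active when robust z-score is at most -1.3, matching the median of the Tlr4 knock-down control, or over 3; control wells and wells with under 50 cells never active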. Meaning of the calls: active = Tnf reporter clearly lowered or raised; inactive = no clear change in Tnf reporter.
This is one part, drawn at random, of about 17,000 deposited reagents. About 1,110 of all reagents (6.6%) were called active. 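Active means lowered or raised reporter signal; replicate intensities are raw and not normalised per plate.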 Reagents against one gene are numbered here. Further read-outs or replicates are left out here.

| gene | reagent no. | Tnf reporter robust z-score | fewer than 50 cells in well | activity call |
| --- | --- | --- | --- | --- |
| D930046H04Rik (RIKEN cDNA D930046H04 gene) | 1 | -1.67 | enough cells in well | active |
| Nlgn2 (neuroligin 2) | 1 | 0.81 | enough cells in well | inactive |
| Angel1 (angel homolog 1) | 1 | 0.13 | enough cells in well | inactive |
| Tmem25 (transmembrane protein 25) | 1 | -0.37 | enough cells in well | inactive |
| Robo2 (roundabout guidance receptor 2) | 1 | – | fewer than 50 cells per well; well left out of calls | inactive |
| Kcnj3 (potassium inwardly-rectifying channel, subfamily J, member 3) | 1 | 0.34 | enough cells in well | inactive |
| Cfdp1 (craniofacial development protein 1) | 1 | -0.46 | enough cells in well | inactive |
| Psmg1 (proteasome (prosome, macropain) assembly chaperone 1) | 1 | 1.2 | enough cells in well | inactive |
| Slc67a2 | 1 | 0.89 | enough cells in well | inactive |
| Arfgap3 (ARF GTPase activating protein 3) | 1 | -0.12 | enough cells in well | inactive |
| Psmb4 (proteasome (prosome, macropain) subunit, beta type 4) | 1 | 0.27 | enough cells in well | inactive |
| Or4k51 (olfactory receptor family 4 subfamily K member 51) | 1 | 1.18 | enough cells in well | inactive |
| Dcxr (dicarbonyl L-xylulose reductase) | 1 | -0.83 | enough cells in well | inactive |
| Cyp19a1 (cytochrome P450, family 19, subfamily a, polypeptide 1) | 1 | 0.38 | enough cells in well | inactive |
| Oaf (out at first homolog) | 1 | -0.49 | enough cells in well | inactive |
| Zfp747 (zinc finger protein 747) | 1 | 1.65 | enough cells in well | inactive |
| Srpx2 (sushi-repeat-containing protein, X-linked 2) | 1 | 1.11 | enough cells in well | inactive |
| Itga6 (integrin alpha 6) | 1 | -0.55 | enough cells in well | inactive |
| Tnfrsf26 (tumor necrosis factor receptor superfamily, member 26) | 1 | -0.21 | enough cells in well | inactive |
| Spry2 (sprouty RTK signaling antagonist 2) | 1 | -1.55 | enough cells in well | active |
| Vta1 (vesicle (multivesicular body) trafficking 1) | 1 | -0.95 | enough cells in well | inactive |
| Kif3b (kinesin family member 3B) | 1 | -0.67 | enough cells in well | inactive |
| Mgmt (O-6-methylguanine-DNA methyltransferase) | 1 | -0.34 | enough cells in well | inactive |
| Serpinc1 | 1 | 1.96 | enough cells in well | inactive |
| Chrm3 (cholinergic receptor, muscarinic 3, cardiac) | 1 | -0.1 | enough cells in well | inactive |
| Cbln2 (cerebellin 2 precursor protein) | 1 | -0.62 | enough cells in well | inactive |
| Dab2ip (disabled 2 interacting protein) | 1 | -0.48 | enough cells in well | inactive |
| Ankfy1 (ankyrin repeat and FYVE domain containing 1) | 1 | -0.18 | enough cells in well | inactive |
| Laptm4a (lysosomal-associated protein transmembrane 4A) | 1 | 1.46 | enough cells in well | inactive |
| Krtap19-1 (keratin associated protein 19-1) | 1 | -0.64 | enough cells in well | inactive |
| Hapln4 (hyaluronan and proteoglycan link protein 4) | 1 | 1.27 | enough cells in well | inactive |
| Elovl5 (ELOVL fatty acid elongase 5) | 1 | 1.22 | enough cells in well | inactive |
| Phf21a (PHD finger protein 21A) | 1 | 1.01 | enough cells in well | inactive |
| Ppie (peptidylprolyl isomerase E (cyclophilin E)) | 1 | – | fewer than 50 cells per well; well left out of calls | inactive |
| Jag1 (jagged 1) | 1 | 0.64 | enough cells in well | inactive |
| Ndufs2 (NADH:ubiquinone oxidoreductase core subunit S2) | 1 | -0.05 | enough cells in well | inactive |
| Sh2d1b1 (SH2 domain containing 1B1) | 1 | – | fewer than 50 cells per well; well left out of calls | inactive |
| Strn4 (striatin, calmodulin binding protein 4) | 1 | – | fewer than 50 cells per well; well left out of calls | inactive |
| Tmem14c (transmembrane protein 14C) | 1 | 1.95 | enough cells in well | inactive |
| Xylt1 (xylosyltransferase 1) | 1 | 3.51 | enough cells in well | active |
| 2900060N12Rik (RIKEN cDNA 2900060N12 gene) | 1 | -1.14 | enough cells in well | inactive |
| Sh3bgrl3 (SH3 domain binding glutamic acid-rich protein-like 3) | 1 | – | fewer than 50 cells per well; well left out of calls | inactive |
| Cdca7l (cell division cycle associated 7 like) | 1 | 1.64 | enough cells in well | inactive |
| Snrnp200 (small nuclear ribonucleoprotein 200 (U5)) | 1 | -1 | enough cells in well | inactive |
| Unc93a (unc-93 homolog A) | 1 | – | fewer than 50 cells per well; well left out of calls | inactive |
| Pafah1b2 | 1 | -0.59 | enough cells in well | inactive |
| Sgk3 (serum/glucocorticoid regulated kinase 3) | 1 | 0.81 | enough cells in well | inactive |
| Cldn12 (claudin 12) | 1 | -0.15 | enough cells in well | inactive |
| Aadac (arylacetamide deacetylase) | 1 | 1.36 | enough cells in well | inactive |
| Steap3 (STEAP family member 3) | 1 | 1.16 | enough cells in well | inactive |
| Sh3yl1 (Sh3 domain YSC-like 1) | 1 | -1.3 | enough cells in well | active |
| AI593442 (expressed sequence AI593442) | 1 | 0.1 | enough cells in well | inactive |
| Cryba2 (crystallin, beta A2) | 1 | 0.87 | enough cells in well | inactive |
| Pttg1 (pituitary tumor-transforming gene 1) | 1 | -0.06 | enough cells in well | inactive |
| Kifap3 (kinesin-associated protein 3) | 1 | 0.11 | enough cells in well | inactive |
| Cog4 (component of oligomeric golgi complex 4) | 1 | 0.14 | enough cells in well | inactive |
| Or4x13 (olfactory receptor family 4 subfamily X member 13) | 1 | 1.46 | enough cells in well | inactive |
| Or4x13 (olfactory receptor family 4 subfamily X member 13) | 2 | -0.37 | enough cells in well | inactive |

Records listed so far whose gene name starts with A or a:
| gene | reagent no. | Tnf reporter robust z-score | fewer than 50 cells in well | activity call |
| --- | --- | --- | --- | --- |
| Angel1 (angel homolog 1) | 1 | 0.13 | enough cells in well | inactive |
| Arfgap3 (ARF GTPase activating protein 3) | 1 | -0.12 | enough cells in well | inactive |
| Ankfy1 (ankyrin repeat and FYVE domain containing 1) | 1 | -0.18 | enough cells in well | inactive |
| Aadac (arylacetamide deacetylase) | 1 | 1.36 | enough cells in well | inactive |
| AI593442 (expressed sequence AI593442) | 1 | 0.1 | enough cells in well | inactive |
